Some of the results follow.
compound: NC(=O)Nc1cc(-c2cccc(F)c2)sc1C(=O)N[C@H]1CCCNC1; test: log2 fold change, soluble protein after heating vs DMSO (PISA); higher = thermal stabilisation; K562 cells, 10 uM, 30 min; active = over 0.2 and 3.5 SD of the protein, either way, in both replicates (recomputed)
In short: (§1)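 K562 cells at 2×10^6 cells/mL were treated for 30 min with 10 μM compound, and aliquots were heated for 3 min over 48°C-58°C before pooling. Extraction used PBS with 0.5% NP-40 at 4°C, and soluble protein was the supernatant after 21,000xg for 90 min, measured by TMTpro 16plex LC-MS/MS with channel sums equalised. Thermal stability values, relative to control samples and from duplicates, are log2 fold changes.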

Chains of the proteins cited; added tags and fusions are not shown. Lines headed by an entry give the natural chain unless they say otherwise; changes in a name come on top.
UniProt Q9H974: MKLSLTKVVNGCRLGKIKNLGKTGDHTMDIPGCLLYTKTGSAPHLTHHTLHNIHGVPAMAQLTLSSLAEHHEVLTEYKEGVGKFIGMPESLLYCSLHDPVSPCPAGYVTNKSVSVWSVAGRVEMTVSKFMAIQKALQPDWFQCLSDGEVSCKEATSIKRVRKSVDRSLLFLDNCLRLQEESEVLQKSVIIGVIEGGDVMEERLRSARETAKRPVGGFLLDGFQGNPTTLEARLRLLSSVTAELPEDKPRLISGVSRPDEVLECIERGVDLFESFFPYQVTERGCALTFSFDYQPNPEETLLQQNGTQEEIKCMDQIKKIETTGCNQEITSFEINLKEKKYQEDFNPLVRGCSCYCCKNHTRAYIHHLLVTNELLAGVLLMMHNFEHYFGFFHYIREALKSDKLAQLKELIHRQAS
UniProt O95758: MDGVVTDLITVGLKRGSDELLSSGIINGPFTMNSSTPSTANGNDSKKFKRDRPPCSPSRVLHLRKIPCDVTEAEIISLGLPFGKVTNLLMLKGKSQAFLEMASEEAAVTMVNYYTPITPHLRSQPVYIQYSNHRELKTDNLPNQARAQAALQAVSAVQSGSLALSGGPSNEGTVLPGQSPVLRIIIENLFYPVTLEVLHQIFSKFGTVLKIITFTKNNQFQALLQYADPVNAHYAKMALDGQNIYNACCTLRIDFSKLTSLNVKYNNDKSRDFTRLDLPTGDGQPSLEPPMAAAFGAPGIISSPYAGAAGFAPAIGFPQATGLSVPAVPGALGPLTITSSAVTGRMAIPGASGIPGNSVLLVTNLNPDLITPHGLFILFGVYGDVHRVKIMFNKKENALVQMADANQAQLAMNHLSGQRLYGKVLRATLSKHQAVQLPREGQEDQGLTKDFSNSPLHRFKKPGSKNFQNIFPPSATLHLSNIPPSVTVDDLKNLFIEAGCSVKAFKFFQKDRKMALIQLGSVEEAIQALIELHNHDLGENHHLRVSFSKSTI
UniProt P09417: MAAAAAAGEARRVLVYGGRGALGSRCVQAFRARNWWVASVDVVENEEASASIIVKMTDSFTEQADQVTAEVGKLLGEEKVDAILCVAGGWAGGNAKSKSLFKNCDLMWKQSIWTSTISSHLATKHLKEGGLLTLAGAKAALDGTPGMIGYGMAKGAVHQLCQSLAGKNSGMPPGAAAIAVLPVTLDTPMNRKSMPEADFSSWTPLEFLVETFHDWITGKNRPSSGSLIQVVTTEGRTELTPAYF
UniProt Q15032: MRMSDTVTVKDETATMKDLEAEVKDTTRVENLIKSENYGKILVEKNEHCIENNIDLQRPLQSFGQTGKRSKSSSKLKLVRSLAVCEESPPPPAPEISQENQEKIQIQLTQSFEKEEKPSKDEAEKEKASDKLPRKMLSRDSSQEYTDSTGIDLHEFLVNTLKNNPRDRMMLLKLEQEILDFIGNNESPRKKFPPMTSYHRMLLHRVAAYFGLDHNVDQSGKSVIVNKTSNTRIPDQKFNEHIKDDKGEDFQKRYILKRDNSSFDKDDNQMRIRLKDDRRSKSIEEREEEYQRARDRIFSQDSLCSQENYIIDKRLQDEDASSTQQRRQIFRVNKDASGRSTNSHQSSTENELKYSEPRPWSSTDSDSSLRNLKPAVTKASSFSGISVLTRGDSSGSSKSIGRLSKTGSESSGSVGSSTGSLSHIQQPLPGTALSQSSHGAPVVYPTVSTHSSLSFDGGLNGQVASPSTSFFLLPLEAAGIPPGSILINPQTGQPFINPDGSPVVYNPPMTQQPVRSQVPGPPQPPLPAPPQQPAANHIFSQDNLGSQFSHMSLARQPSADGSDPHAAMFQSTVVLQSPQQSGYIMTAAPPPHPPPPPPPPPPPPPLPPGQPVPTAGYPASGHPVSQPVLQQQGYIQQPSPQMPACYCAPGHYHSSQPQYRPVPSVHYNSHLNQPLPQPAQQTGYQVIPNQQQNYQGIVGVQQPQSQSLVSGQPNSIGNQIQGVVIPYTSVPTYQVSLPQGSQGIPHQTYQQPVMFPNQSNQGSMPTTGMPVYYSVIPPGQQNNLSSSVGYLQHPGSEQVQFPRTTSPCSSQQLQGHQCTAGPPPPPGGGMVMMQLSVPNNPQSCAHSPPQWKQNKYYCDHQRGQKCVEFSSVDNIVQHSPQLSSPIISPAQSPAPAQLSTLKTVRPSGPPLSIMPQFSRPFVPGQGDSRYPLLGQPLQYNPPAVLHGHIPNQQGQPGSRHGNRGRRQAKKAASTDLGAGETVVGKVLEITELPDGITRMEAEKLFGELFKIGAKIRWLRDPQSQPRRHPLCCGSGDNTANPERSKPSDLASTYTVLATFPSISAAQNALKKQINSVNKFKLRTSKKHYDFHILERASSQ
UniProt P25787: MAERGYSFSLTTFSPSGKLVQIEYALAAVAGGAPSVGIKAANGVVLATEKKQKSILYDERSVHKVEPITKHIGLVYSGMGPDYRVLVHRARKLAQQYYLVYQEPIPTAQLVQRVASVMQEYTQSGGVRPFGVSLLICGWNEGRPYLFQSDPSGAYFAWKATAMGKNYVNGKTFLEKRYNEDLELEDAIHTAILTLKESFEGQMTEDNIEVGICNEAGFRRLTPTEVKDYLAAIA
UniProt Q9UNM6: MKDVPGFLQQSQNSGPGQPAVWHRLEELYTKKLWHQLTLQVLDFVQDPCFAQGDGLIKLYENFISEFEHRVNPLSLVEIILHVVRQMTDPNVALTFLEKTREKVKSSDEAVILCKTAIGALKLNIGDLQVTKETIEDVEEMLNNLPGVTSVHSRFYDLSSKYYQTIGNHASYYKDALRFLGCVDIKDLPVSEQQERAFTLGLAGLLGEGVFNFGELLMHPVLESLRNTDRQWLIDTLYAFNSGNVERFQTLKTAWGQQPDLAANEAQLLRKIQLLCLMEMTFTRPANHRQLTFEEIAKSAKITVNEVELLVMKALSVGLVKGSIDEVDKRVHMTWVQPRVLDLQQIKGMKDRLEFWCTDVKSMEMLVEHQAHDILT
UniProt Q99460, whole entry, looked up: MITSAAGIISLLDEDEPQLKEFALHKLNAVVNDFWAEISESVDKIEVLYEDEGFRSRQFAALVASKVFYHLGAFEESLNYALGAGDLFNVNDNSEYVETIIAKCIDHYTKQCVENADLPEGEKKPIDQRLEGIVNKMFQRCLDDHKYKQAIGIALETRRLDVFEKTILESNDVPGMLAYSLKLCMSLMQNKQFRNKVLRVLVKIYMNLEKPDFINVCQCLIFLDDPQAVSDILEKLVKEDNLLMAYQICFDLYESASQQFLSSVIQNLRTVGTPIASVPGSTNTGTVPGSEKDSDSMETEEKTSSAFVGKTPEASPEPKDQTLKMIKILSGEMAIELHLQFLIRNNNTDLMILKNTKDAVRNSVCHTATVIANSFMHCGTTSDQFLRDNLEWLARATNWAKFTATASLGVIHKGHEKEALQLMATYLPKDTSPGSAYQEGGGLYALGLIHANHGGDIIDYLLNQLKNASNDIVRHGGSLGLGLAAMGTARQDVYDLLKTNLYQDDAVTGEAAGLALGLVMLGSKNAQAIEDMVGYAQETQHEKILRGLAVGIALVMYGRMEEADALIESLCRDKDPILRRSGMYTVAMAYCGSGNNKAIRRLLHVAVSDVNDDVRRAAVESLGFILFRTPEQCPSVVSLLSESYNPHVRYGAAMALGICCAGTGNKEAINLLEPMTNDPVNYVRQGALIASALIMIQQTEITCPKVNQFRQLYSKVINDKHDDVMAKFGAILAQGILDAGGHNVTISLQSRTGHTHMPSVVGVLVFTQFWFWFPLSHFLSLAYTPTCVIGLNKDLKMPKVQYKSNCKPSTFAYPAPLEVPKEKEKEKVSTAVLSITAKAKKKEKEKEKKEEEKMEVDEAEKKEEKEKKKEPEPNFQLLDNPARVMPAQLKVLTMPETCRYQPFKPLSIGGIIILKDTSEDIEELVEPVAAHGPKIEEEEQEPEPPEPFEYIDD
UniProt P28072: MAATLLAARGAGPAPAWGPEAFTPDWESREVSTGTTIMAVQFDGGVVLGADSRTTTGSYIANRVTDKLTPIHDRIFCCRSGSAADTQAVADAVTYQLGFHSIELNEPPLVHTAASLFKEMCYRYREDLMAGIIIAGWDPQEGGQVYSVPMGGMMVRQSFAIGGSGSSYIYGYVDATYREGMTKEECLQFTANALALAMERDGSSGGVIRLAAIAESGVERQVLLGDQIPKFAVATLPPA
UniProt Q12974: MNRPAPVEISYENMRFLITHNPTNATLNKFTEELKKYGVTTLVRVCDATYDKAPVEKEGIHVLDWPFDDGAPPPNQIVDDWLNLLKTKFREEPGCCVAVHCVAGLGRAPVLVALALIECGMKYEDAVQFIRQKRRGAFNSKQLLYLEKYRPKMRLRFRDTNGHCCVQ
UniProt Q96PZ0: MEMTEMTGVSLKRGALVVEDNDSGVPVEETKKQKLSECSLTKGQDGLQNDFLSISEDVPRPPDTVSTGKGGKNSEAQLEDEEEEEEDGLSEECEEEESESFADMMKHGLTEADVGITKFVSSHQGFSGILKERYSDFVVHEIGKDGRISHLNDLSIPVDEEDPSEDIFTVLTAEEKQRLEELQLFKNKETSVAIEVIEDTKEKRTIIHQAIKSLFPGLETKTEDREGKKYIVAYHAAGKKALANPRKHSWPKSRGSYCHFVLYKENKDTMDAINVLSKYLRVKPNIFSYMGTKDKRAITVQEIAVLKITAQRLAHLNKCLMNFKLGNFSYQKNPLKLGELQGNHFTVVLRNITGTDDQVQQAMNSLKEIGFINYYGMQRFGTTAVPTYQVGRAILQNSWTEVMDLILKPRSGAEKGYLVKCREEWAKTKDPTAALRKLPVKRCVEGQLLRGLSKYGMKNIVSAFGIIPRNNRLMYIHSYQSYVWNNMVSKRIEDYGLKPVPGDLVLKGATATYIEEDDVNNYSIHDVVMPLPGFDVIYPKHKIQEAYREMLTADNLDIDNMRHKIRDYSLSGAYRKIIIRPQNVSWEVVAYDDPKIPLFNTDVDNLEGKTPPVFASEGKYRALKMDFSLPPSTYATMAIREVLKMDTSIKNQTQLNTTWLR
UniProt Q8WUK0: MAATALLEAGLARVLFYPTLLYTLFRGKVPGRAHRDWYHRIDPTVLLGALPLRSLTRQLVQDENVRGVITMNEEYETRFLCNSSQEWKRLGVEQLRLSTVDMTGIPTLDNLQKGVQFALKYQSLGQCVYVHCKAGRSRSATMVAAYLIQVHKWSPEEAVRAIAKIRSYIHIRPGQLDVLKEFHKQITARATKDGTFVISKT
UniProt P18031: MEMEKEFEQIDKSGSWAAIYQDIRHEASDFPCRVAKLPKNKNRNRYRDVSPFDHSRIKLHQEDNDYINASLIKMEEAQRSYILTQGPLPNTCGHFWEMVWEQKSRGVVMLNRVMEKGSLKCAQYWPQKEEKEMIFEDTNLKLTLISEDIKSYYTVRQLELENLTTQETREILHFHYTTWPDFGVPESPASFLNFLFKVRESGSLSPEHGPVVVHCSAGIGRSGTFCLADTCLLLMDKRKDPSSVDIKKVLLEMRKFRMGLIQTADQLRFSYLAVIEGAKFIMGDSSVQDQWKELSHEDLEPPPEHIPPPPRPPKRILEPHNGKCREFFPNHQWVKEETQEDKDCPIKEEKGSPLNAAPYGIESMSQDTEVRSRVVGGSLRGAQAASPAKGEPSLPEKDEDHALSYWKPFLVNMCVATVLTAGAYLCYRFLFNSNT
UniProt Q92932: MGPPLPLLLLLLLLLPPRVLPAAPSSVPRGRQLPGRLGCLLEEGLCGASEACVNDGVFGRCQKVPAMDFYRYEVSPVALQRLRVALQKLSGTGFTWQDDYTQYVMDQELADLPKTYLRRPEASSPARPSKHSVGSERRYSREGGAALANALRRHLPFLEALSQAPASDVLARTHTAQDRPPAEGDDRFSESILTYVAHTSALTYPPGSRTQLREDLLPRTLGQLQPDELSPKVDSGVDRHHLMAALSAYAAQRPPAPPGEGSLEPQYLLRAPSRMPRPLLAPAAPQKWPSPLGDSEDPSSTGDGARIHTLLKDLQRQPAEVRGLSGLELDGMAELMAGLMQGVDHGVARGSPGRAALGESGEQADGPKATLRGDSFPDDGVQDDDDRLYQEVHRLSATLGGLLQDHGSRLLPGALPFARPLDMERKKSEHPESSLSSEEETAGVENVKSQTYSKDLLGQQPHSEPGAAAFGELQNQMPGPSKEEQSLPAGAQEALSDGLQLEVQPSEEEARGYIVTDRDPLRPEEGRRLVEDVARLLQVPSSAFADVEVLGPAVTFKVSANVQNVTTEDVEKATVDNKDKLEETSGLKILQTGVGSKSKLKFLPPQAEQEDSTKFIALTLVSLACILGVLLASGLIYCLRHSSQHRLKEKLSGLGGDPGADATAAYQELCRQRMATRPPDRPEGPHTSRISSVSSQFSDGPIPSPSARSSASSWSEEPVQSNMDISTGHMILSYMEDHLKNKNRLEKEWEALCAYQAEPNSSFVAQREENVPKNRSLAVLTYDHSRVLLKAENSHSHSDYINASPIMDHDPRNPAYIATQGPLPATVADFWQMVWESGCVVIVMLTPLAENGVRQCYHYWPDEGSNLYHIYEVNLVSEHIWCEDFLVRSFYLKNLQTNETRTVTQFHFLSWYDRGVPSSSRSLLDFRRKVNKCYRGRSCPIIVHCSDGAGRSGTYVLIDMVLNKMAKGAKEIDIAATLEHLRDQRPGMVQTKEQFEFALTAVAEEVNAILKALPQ

log2 fold change, inactive:
QTRT2 isoform 4 (UniProt Q9H974) 0.037
PTBP3 isoform 4 (UniProt O95758) -0.069
PSEN2 (UniProt P49810) -0.083
QDPR (UniProt P09417) -0.011
R3HDM1 isoform 2 (UniProt Q15032) -0.162
PSMA2 (UniProt P25787) 0.046
PSMD13 (UniProt Q9UNM6) -0.049
PSMD1 (UniProt Q99460) 0.086
PSMB6 (UniProt P28072) 0.024
PTP4A2 (UniProt Q12974) -0.161
PUS7 isoform 2 (UniProt Q96PZ0) 0.065

compound: NC(=O)c1cnc(N[C@@H]2CCCC[C@@H]2N)nc1Nc1cccc(-n2nccn2)c1; test: as above
In short: as §1

log2 fold change, inactive:
PSMD4 (UniProt Q5VWC4) 0.031
QRICH1 (UniProt Q2TAL8) -0.119
PSMD3 (UniProt O43242) 0.009
PSMA7 isoform 2 (UniProt O14818) -0.106
PYCR1 isoform 3 (UniProt P32322) 0.051
PTMA (UniProt P06454) 0.2
QPCTL (UniProt Q9NXS2) 0.061
PSMG3 (UniProt Q9BT73) 0.042
PSD2 (UniProt Q9BQI7) -0.066
PTPN23 (UniProt Q9H3S7) 0.011
PSMB2, A0A087WVV1 0.105
PSMB10 (UniProt P40306) -0.004
PYCARD (UniProt Q9ULZ3) 0.014
PSMB7 (UniProt Q99436) 0.042
PTPMT1 (UniProt Q8WUK0) -0.264
PTPN1 (UniProt P18031) -0.029
PTK2B (UniProt Q14289) 0.091
PSMA3 (UniProt P25788) 0.022
PTPRN2 isoform 3 (UniProt Q92932) -0.414
PYURF (UniProt Q96I23) -0.022
PYROXD1 (UniProt Q8WU10) -0.103
PSMB4 (UniProt P28070) -0.01
QSOX1 (UniProt O00391) 0.043
QTRT2 isoform 4 (UniProt Q9H974) -0.016
PTBP3 isoform 4 (UniProt O95758) -0.023
PSEN2 (UniProt P49810) -0.066
QDPR (UniProt P09417) -0.012
R3HDM1 isoform 2 (UniProt Q15032) -0.079
PSMA2 (UniProt P25787) 0.02
PSMD13 (UniProt Q9UNM6) 0.015
PSMD1 (UniProt Q99460) 0.007
PSMB6 (UniProt P28072) 0.006
PTP4A2 (UniProt Q12974) -0.286
PUS7 isoform 2 (UniProt Q96PZ0) -0.01

compound: NC1(c2ccc(-c3nc4ccn5c(=O)[nH]nc5c4cc3-c3ccccc3)cc2)CCC1; test: as above
In short: as §1

log2 fold change, inactive:
PSMD4 (UniProt Q5VWC4) -0.018
QRICH1 (UniProt Q2TAL8) -0.137
PSMD3 (UniProt O43242) -0.032
PSMA7 isoform 2 (UniProt O14818) 0.108
PYCR1 isoform 3 (UniProt P32322) -0.044
PTMA (UniProt P06454) 0.217
QPCTL (UniProt Q9NXS2) 0.062
PSMG3 (UniProt Q9BT73) -0.001
PSD2 (UniProt Q9BQI7) 0.014
PTPN23 (UniProt Q9H3S7) -0.081
PSMB2, A0A087WVV1 -0.31
PSMB10 (UniProt P40306) 0.033
PYCARD (UniProt Q9ULZ3) -0.022
PSMB7 (UniProt Q99436) 0.056
PTPMT1 (UniProt Q8WUK0) -0.263
PTPN1 (UniProt P18031) -0.03
PTK2B (UniProt Q14289) -0.13
PSMA3 (UniProt P25788) 0.071
PTPRN2 isoform 3 (UniProt Q92932) -0.148
PYURF (UniProt Q96I23) 0.024
PYROXD1 (UniProt Q8WU10) -0.284
PSMB4 (UniProt P28070) 0.068
QSOX1 (UniProt O00391) 0.111
QTRT2 isoform 4 (UniProt Q9H974) -0.049
PTBP3 isoform 4 (UniProt O95758) -0.007
PSEN2 (UniProt P49810) -0.177
QDPR (UniProt P09417) -0.012
R3HDM1 isoform 2 (UniProt Q15032) 0.034
PSMA2 (UniProt P25787) 0.04
PSMD13 (UniProt Q9UNM6) -0.044
PSMD1 (UniProt Q99460) -0.013
PSMB6 (UniProt P28072) 0.046
PTP4A2 (UniProt Q12974) 0.079
PUS7 isoform 2 (UniProt Q96PZ0) 0.012

Reference: the supplement of paper PMC10849652
